# ± gives the standard deviation of the averaged measurements. The list shows a part of the results. Only hits are listed; about a third recur on repeated control peptides.
# Sequences of proteins named here, by UniProt entry; tags and fusion partners are left off.
# ATG3, Q9NT62, UniProt Q9NT62, whole entry: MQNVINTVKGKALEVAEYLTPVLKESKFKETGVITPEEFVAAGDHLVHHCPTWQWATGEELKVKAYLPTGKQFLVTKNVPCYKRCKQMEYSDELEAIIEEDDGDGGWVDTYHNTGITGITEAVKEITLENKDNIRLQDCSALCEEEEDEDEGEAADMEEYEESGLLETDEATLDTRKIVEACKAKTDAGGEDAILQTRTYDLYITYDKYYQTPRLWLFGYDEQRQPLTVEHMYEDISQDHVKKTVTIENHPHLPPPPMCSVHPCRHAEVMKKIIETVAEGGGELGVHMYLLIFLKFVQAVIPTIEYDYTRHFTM
# CAPRIN1, Q14444, UniProt Q14444, whole entry: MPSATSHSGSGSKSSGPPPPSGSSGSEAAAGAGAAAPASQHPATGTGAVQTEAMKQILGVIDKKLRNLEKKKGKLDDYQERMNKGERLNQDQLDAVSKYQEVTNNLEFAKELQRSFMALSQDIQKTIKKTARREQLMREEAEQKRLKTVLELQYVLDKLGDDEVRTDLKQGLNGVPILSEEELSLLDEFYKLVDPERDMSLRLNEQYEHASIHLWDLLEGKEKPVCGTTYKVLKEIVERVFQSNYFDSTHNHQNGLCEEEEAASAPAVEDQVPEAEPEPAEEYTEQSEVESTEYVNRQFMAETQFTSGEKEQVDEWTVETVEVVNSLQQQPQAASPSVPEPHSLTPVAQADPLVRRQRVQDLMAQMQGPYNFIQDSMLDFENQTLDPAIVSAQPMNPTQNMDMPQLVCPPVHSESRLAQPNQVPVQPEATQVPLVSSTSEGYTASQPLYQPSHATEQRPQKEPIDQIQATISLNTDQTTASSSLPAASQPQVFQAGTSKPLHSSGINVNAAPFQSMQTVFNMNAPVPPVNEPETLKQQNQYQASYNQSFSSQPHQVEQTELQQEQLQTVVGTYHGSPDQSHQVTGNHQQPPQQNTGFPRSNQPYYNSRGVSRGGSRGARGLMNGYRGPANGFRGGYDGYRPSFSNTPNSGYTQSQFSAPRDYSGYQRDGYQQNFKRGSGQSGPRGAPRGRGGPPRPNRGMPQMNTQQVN
# CCNB1, P14635, UniProt P14635, whole entry: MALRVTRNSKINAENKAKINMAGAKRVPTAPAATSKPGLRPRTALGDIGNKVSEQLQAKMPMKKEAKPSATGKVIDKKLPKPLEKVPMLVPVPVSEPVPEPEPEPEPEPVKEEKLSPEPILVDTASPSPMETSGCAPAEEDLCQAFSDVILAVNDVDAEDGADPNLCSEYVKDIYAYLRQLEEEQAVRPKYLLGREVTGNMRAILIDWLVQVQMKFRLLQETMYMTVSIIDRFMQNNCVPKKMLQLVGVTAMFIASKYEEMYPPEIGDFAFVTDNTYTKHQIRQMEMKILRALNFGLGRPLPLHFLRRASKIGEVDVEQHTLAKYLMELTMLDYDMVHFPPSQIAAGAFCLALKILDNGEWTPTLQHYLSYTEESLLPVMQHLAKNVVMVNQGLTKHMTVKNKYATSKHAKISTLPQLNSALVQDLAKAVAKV
# DMAP1, Q9NPF5, UniProt Q9NPF5, whole entry: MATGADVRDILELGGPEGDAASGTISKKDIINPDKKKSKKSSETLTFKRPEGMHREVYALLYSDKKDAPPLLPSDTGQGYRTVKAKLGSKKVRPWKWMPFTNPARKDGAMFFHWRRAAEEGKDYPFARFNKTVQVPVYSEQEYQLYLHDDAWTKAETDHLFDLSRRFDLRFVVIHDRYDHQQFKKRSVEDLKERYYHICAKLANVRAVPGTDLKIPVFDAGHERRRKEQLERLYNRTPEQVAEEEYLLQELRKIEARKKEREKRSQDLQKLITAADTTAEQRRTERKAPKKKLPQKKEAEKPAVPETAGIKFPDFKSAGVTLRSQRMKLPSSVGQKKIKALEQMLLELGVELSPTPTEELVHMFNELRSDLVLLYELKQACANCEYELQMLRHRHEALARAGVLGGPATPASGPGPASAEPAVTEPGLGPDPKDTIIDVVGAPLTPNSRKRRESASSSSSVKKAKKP
# EIF1, P41567, UniProt P41567, whole entry: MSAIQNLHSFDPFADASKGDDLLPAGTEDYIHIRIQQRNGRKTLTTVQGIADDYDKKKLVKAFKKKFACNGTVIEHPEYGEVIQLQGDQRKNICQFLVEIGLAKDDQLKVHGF
# KHDRBS1, Q07666, UniProt Q07666, whole entry: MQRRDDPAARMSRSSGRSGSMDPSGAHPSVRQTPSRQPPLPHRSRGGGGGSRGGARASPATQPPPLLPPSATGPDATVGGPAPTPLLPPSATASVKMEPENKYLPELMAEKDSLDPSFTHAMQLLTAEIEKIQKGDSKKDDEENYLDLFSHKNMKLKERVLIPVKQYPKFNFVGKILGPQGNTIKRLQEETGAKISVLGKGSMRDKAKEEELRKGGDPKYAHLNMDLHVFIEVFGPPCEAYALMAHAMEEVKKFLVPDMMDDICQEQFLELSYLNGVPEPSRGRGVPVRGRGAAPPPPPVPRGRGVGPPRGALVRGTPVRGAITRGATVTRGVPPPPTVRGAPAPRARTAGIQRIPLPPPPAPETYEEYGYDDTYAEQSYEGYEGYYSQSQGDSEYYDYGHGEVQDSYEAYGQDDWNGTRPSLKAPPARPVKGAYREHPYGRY
# MORF4L2, Q15014, UniProt Q15014, whole entry: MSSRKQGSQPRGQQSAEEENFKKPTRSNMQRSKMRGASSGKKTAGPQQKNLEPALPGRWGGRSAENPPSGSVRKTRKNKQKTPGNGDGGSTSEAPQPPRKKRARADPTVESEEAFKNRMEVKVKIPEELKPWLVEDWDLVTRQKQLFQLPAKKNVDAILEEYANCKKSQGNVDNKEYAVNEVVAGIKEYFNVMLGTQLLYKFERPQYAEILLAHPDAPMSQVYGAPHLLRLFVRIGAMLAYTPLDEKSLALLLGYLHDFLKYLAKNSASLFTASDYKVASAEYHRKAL
# NDUFS5, O43920, UniProt O43920, whole entry: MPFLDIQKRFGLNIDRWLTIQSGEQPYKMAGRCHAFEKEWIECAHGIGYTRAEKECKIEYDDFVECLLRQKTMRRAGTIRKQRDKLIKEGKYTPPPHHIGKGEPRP
# YBX1, P67809, UniProt P67809, whole entry: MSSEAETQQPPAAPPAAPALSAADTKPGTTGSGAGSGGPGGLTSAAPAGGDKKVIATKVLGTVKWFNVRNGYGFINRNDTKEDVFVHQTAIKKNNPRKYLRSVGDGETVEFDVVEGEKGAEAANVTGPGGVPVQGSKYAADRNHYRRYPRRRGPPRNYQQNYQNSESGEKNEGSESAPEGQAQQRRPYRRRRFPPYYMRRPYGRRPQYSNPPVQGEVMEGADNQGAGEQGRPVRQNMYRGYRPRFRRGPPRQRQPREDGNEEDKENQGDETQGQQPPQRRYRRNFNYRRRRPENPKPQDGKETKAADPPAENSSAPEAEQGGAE
# YBX3, P16989, UniProt P16989, whole entry: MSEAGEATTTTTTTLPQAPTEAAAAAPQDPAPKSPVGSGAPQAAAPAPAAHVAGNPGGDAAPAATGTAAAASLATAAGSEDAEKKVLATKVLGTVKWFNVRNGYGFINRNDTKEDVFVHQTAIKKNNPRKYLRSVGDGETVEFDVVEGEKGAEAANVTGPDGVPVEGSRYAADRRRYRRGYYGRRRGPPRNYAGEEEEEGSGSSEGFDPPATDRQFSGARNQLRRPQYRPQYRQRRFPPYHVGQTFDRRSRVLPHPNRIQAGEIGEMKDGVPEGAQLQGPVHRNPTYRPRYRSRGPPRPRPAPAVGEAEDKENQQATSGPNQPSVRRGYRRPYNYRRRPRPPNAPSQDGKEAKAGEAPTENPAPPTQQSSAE
# Columns and labels:
# Experiment in all cases: PRISMA enrichment of interactor (LFQ) in peptide spot vs all other peptide spots (log2 fold change); higher = stronger / more specific binding of the interactor to the peptide
# ALYREF, Q86V81 = target: ALYREF, Q86V81
# Description: (§1)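 PRISMA: 15-aa overlapping tiles (offset 8 aa) of 60 microproteins, plus SOS1/GLUT1 control peptides, were spot-synthesized on cellulose membranes in triplicate. Membranes were incubated with benzonase-treated HEK293T lysate, and bound proteins were identified by LC-MS/MS with LFQ. Enrichment is the log2 fold change of each protein in one spot versus all other spots. Only interactors passing the significance cutoff are listed.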
# ATG3, Q9NT62 = target: ATG3, Q9NT62
# Description: as §1
# BUD23, O43709 = target: BUD23, O43709
# Description: as §1
# C19orf53, Q9UNZ5 = target: C19orf53, Q9UNZ5
# Description: as §1
# CALD1, Q05682 = target: CALD1, Q05682
# Description: as §1
# CAPRIN1, Q14444 = target: CAPRIN1, Q14444
# Description: as §1
# CCDC86, Q9H6F5 = target: CCDC86, Q9H6F5
# Description: as §1
# CCNB1, P14635 = target: CCNB1, P14635
# Description: as §1
# CDCA5, Q96FF9 = target: CDCA5, Q96FF9
# Description: as §1
# CDKN2AIPNL, Q96HQ2 = target: CDKN2AIPNL, Q96HQ2
# Description: as §1
# CHTOP, Q9Y3Y2 = target: CHTOP, Q9Y3Y2
# Description: as §1
# CIRBP, Q14011 = target: CIRBP, Q14011
# Description: as §1
# CSRP2, Q16527 = target: CSRP2, Q16527
# Description: as §1
# DDX42, Q86XP3 = target: DDX42, Q86XP3
# Description: as §1
# DDX5, P17844 = target: DDX5, P17844
# Description: as §1
# DMAP1, Q9NPF5 = target: DMAP1, Q9NPF5
# Description: as §1
# DNAJC8, O75937 = target: DNAJC8, O75937
# Description: as §1
# ECHS1, P30084 = target: ECHS1, P30084
# Description: as §1
# EDF1, O60869 = target: EDF1, O60869
# Description: as §1
# EIF1, P41567 = target: EIF1, P41567
# Description: as §1
# EIF4H, Q15056 = target: EIF4H, Q15056
# Description: as §1
# EWSR1, Q01844 = target: EWSR1, Q01844
# Description: as §1
# FKBP2, P26885 = target: FKBP2, P26885
# Description: as §1
# FUS, P35637 = target: FUS, P35637
# Description: as §1
# G3BP1, Q13283 = target: G3BP1, Q13283
# Description: as §1
# G3BP2, Q9UN86 = target: G3BP2, Q9UN86
# Description: as §1
# HMGA1, P17096 = target: HMGA1, P17096
# Description: as §1
# HMGB1, P09429 = target: HMGB1, P09429
# Description: as §1
# HMGB2, P26583 = target: HMGB2, P26583
# Description: as §1
# HMGN1, P05114 = target: HMGN1, P05114
# Description: as §1
# HMGN2, P05204 = target: HMGN2, P05204
# Description: as §1
# HNRNPA0, Q13151 = target: HNRNPA0, Q13151
# Description: as §1
# HNRNPA1, P09651 = target: HNRNPA1, P09651
# Description: as §1
# HNRNPA2B1, P22626 = target: HNRNPA2B1, P22626
# Description: as §1
# HNRNPA3, P51991 = target: HNRNPA3, P51991
# Description: as §1
# HNRNPL, P14866 = target: HNRNPL, P14866
# Description: as §1
# ITCH, Q96J02 = target: ITCH, Q96J02
# Description: as §1
# JPT2, Q9H910 = target: JPT2, Q9H910
# Description: as §1
# KHDRBS1, Q07666 = target: KHDRBS1, Q07666
# Description: as §1
# LAMTOR5, O43504 = target: LAMTOR5, O43504
# Description: as §1
# LSM14A, Q8ND56 = target: LSM14A, Q8ND56
# Description: as §1
# MORF4L2, Q15014 = target: MORF4L2, Q15014
# Description: as §1
# MRPL27, Q9P0M9 = target: MRPL27, Q9P0M9
# Description: as §1
# NDUFS5, O43920 = target: NDUFS5, O43920
# Description: as §1
# NGDN, Q8NEJ9 = target: NGDN, Q8NEJ9
# Description: as §1
# NIFK, Q9BYG3 = target: NIFK, Q9BYG3
# Description: as §1
# NOL12, Q9UGY1 = target: NOL12, Q9UGY1
# Description: as §1
# NOL7, Q9UMY1 = target: NOL7, Q9UMY1
# Description: as §1
# [1] = substrate: NONO, Q15233
# Description: as §1
# PABPN1, Q86U42 = target: PABPN1, Q86U42
# Description: as §1
# PCLAF, Q15004 = target: PCLAF, Q15004
# Description: as §1
# [2] = substrate: PCNP, Q8WW12
# Description: as §1
# PINX1, Q96BK5 = target: PINX1, Q96BK5
# Description: as §1
# PPP1R14A, Q96A00 = target: PPP1R14A, Q96A00
# Description: as §1
# PQBP1, O60828 = target: PQBP1, O60828
# Description: as §1
# PUS1, Q9Y606 = target: PUS1, Q9Y606
# Description: as §1
# RAVER1, Q8IY67 = target: RAVER1, Q8IY67
# Description: as §1
# RBM3, P98179 = target: RBM3, P98179
# Description: as §1
# RBM42, Q9BTD8 = target: RBM42, Q9BTD8
# Description: as §1
# SERF2, P84101 = target: SERF2, P84101
# Description: as §1
# SFPQ, P23246 = target: SFPQ, P23246
# Description: as §1
# SHROOM3, Q8TF72 = target: SHROOM3, Q8TF72
# Description: as §1
# SPAG5, Q96R06 = target: SPAG5, Q96R06
# Description: as §1
# SYNCRIP, O60506 = target: SYNCRIP, O60506
# Description: as §1
# TMA16, Q96EY4 = target: TMA16, Q96EY4
# Description: as §1
# TRMT112, Q9UI30 = target: TRMT112, Q9UI30
# Description: as §1
# USP39, Q53GS9 = target: USP39, Q53GS9
# Description: as §1
# YBX1, P67809 = target: YBX1, P67809
# Description: as §1
# YBX3, P16989 = target: YBX3, P16989
# Description: as §1
# ZMAT2, Q96NC0 = target: ZMAT2, Q96NC0
# Description: as §1
# ZNF593, O00488 = target: ZNF593, O00488
# Description: as §1
# hCG_2014768 = target: hCG_2014768
# Description: as §1
binder,measurement,setting,value
FVVAVGAEYYLESLN [NDUFB3],PRISMA enrichment of interactor (log2),"ALYREF, Q86V81",5.01 ± 0.58
same,PRISMA enrichment of interactor (log2),"ATG3, Q9NT62",5.02
same,PRISMA enrichment of interactor (log2),"BUD23, O43709",3.98
same,PRISMA enrichment of interactor (log2),"C19orf53, Q9UNZ5",6.93
same,PRISMA enrichment of interactor (log2),"CALD1, Q05682",5.48
same,PRISMA enrichment of interactor (log2),"CAPRIN1, Q14444",5.9
same,PRISMA enrichment of interactor (log2),"CCDC86, Q9H6F5",4.44
same,PRISMA enrichment of interactor (log2),"CCNB1, P14635",4.56
same,PRISMA enrichment of interactor (log2),"CDCA5, Q96FF9",4.65
same,PRISMA enrichment of interactor (log2),"CDKN2AIPNL, Q96HQ2",3.92
same,PRISMA enrichment of interactor (log2),"CHTOP, Q9Y3Y2",6.11
same,PRISMA enrichment of interactor (log2),"CIRBP, Q14011",5.74
same,PRISMA enrichment of interactor (log2),"CSRP2, Q16527",5.82
same,PRISMA enrichment of interactor (log2),"DDX42, Q86XP3",6.36
same,PRISMA enrichment of interactor (log2),"DDX5, P17844",6.13
same,PRISMA enrichment of interactor (log2),"DMAP1, Q9NPF5",4.05
same,PRISMA enrichment of interactor (log2),"DNAJC8, O75937",4.79
same,PRISMA enrichment of interactor (log2),"ECHS1, P30084",8.46
same,PRISMA enrichment of interactor (log2),"EDF1, O60869",4.95
same,PRISMA enrichment of interactor (log2),"EIF1, P41567",4.97
same,PRISMA enrichment of interactor (log2),"EIF4H, Q15056",6.5
same,PRISMA enrichment of interactor (log2),"EWSR1, Q01844",6.53
same,PRISMA enrichment of interactor (log2),"FKBP2, P26885",4.06
same,PRISMA enrichment of interactor (log2),"FUS, P35637",5.74
same,PRISMA enrichment of interactor (log2),"G3BP1, Q13283",5.24
same,PRISMA enrichment of interactor (log2),"G3BP2, Q9UN86",6.34
same,PRISMA enrichment of interactor (log2),"HMGA1, P17096",5.75
same,PRISMA enrichment of interactor (log2),"HMGB1, P09429",5.97
same,PRISMA enrichment of interactor (log2),"HMGB2, P26583",4.05
same,PRISMA enrichment of interactor (log2),"HMGN1, P05114",5.43
same,PRISMA enrichment of interactor (log2),"HMGN2, P05204",5.46
same,PRISMA enrichment of interactor (log2),"HNRNPA0, Q13151",4.94
same,PRISMA enrichment of interactor (log2),"HNRNPA1, P09651",5.6
same,PRISMA enrichment of interactor (log2),"HNRNPA2B1, P22626",4.56
same,PRISMA enrichment of interactor (log2),"HNRNPA3, P51991",5.3
same,PRISMA enrichment of interactor (log2),"HNRNPL, P14866",4.81
same,PRISMA enrichment of interactor (log2),"ITCH, Q96J02",4.41
same,PRISMA enrichment of interactor (log2),"JPT2, Q9H910",3.87
same,PRISMA enrichment of interactor (log2),"KHDRBS1, Q07666",6.94
same,PRISMA enrichment of interactor (log2),"LAMTOR5, O43504",3.95
same,PRISMA enrichment of interactor (log2),"LSM14A, Q8ND56",5.21
same,PRISMA enrichment of interactor (log2),"MORF4L2, Q15014",5.29
same,PRISMA enrichment of interactor (log2),"MRPL27, Q9P0M9",6.74
same,PRISMA enrichment of interactor (log2),"NDUFS5, O43920",4.3
same,PRISMA enrichment of interactor (log2),"NGDN, Q8NEJ9",4.31
same,PRISMA enrichment of interactor (log2),"NIFK, Q9BYG3",4.33
same,PRISMA enrichment of interactor (log2),"NOL12, Q9UGY1",4.64
same,PRISMA enrichment of interactor (log2),"NOL7, Q9UMY1",4.65
same,PRISMA enrichment of interactor (log2),[1],5.27
same,PRISMA enrichment of interactor (log2),"PABPN1, Q86U42",4.95
same,PRISMA enrichment of interactor (log2),"PCLAF, Q15004",4.78
same,PRISMA enrichment of interactor (log2),[2],3.98
same,PRISMA enrichment of interactor (log2),"PINX1, Q96BK5",4.67
same,PRISMA enrichment of interactor (log2),"PPP1R14A, Q96A00",4.72
same,PRISMA enrichment of interactor (log2),"PQBP1, O60828",4.06
same,PRISMA enrichment of interactor (log2),"PUS1, Q9Y606",4.95
same,PRISMA enrichment of interactor (log2),"RAVER1, Q8IY67",4.22
same,PRISMA enrichment of interactor (log2),"RBM3, P98179",4.96
same,PRISMA enrichment of interactor (log2),"RBM42, Q9BTD8",3.85
same,PRISMA enrichment of interactor (log2),"SERF2, P84101",6.27
same,PRISMA enrichment of interactor (log2),"SFPQ, P23246",5.8
same,PRISMA enrichment of interactor (log2),"SHROOM3, Q8TF72",9.18
same,PRISMA enrichment of interactor (log2),"SPAG5, Q96R06",4.41
same,PRISMA enrichment of interactor (log2),"SYNCRIP, O60506",5.03
same,PRISMA enrichment of interactor (log2),"TMA16, Q96EY4",4.07
same,PRISMA enrichment of interactor (log2),"TRMT112, Q9UI30",5.04
same,PRISMA enrichment of interactor (log2),"USP39, Q53GS9",4.31
same,PRISMA enrichment of interactor (log2),"YBX1, P67809",5.25
same,PRISMA enrichment of interactor (log2),"YBX3, P16989",6.52
same,PRISMA enrichment of interactor (log2),"ZMAT2, Q96NC0",4.05
same,PRISMA enrichment of interactor (log2),"ZNF593, O00488",4.76
same,PRISMA enrichment of interactor (log2),hCG_2014768,5.75

# Quoted from the results shown (three entries):
binder,measurement,setting,value
FVVAVGAEYYLESLN [NDUFB3],PRISMA enrichment of interactor (log2),"MRPL27, Q9P0M9",6.74
same,PRISMA enrichment of interactor (log2),"NDUFS5, O43920",4.3
same,PRISMA enrichment of interactor (log2),"NGDN, Q8NEJ9",4.31

# Source: the supplement of paper PMC10032668
